Laboratory results published in the supplement of paper PMC10338343.
± gives the standard deviation. Only a part is listed here, and it is no random draw. The uncertainty is large for many entries.

test system: MIWI (PIWIL1) piRISC loaded with Kctd7 piRNA (30 nt); assay: pre-steady-state target cleavage rate (min^-1); MIWI and MILI are mouse PIWI proteins and EfPiwi is from a freshwater sponge; tags in brackets are library labels; higher = faster piRNA-guided slicing of the target; conditions: guide: Kctd7 piRNA 5'p-UGUUAAUCUCUCAGAGAAGGUGACAGUGAU; auxiliary factor: 500 nM mouse GTSF1
Experimental: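 Cleave-'n-Seq: a library of target RNAs (target site embedded in constant flanks, ACAGCATTCCGCGTTAGTGATATCCG... 5' flank; DNA-blocked outside the site) at 0.1 nM was incubated with 1 nM active mouse MILI or MIWI piRISC (synthetic 5'-monophosphorylated piRNA guide) with or without 500 nM mouse GTSF1 at 33 °C for 1 min to 16 h. Uncleaved targets were sequenced and normalised to non-target controls, and the pooled three trials were fitted to a burst-and-steady-state model to give the pre-steady-state cleavage rate (min^-1; k3 is constrained to at most 1e-4). Sequence is the target site only; target names encode pairing extent (gX:gY) and contiguous / 1-mismatch / 2-mismatch / bulge geometry. Fits with R² ≤ 0 are excluded.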

| Sequence | pre-steady-state target cleavage rate |
| --- | --- |
| UAGUGACAGUGGAAGAGAGAGAGUUUAAGA | 0.000275 ± 0.018 |
| UAGACUGUCACCUUCUCUGAGAAGAUUAACA | 0.0399 ± 0.0084 |
| UAGUGACAGUGGAUCUCUGAGACUAUAACA | 0.000574 ± 0.024 |
| UAGUGACAGUCGUUCUCUGAGAGAUUAAGA | 0.000355 ± 0.024 |
| UAGUCUGUCACCUUCUCUGACUCAUAUUGA | 0.000868 ± 0.0073 |
| UAGUGACAGACCUUCUCUGUGAGAUUUUGA | 0.000746 ± 0.011 |
| UAGUGACACACCUUCUGACUCUCUAAUUGA [g15:g22:cont:t1A] | 0.0016 ± 0.0054 |
| UAGUGACAGAGCUUCUCUGAGAGAUUAUGA | 0.000906 ± 0.01 |
| UAGUGUGUCACCUUCUCUGAGUGAUUAUCA | 0.00944 ± 0.0044 |
| UAGACUGUCACCUUCUCUGAGAGAUAAUGA | 0.00696 ± 0.0033 |
| UAGUGACAGUGGAAGACUGUCAGAUUAACA | 0.000549 ± 0.017 |
| UAGUGACUCACCAUCUCUGAGAGAUUUUGA | 0.00118 ± 0.0049 |
| UAGUGUGUCACCUUCUCUGUGAGAUAUUGA | 0.00237 ± 0.0049 |
| UAGUGACAGUGGAACUCUGAGUGAAUAACA | 0.000642 ± 0.016 |
| UAGUGACAGUCCUUCUCUGAGUGAUUAUCA | 0.00079 ± 0.0049 |
| AUCACUGUCACCAUUCUCUGAGAGAUUAACA | 0.741 ± 0.036 |
| UAGUGACACACCUUCUCUGAGACUUAUUGA | 0.000315 ± 0.027 |
| UACACUGUCACCUUCUCUGAGACUUUAUGA | 0.00869 ± 0.0047 |
| UAGUGACAGUGGAAGAGAGAGAGUUUAACA | 0.000208 ± 0.026 |
| UUCACUCUCACCAUCUCUGAGAGAUUAACA | 0.465 ± 0.024 |
| UAGUGACAGUGGAACUCUGAGACAUUUACA | 0.000923 ± 0.018 |
| UACAGUGUCACCAUCUCUGAGAGAUUAACA | 0.592 ± 0.036 |
| UAGUGACUCACCUUGUCUGUGAGAUUAACA | 0.0416 ± 0.0061 |
| AUCACUGCCACCUUCUCUGAGAGAUUAACA | 0.773 ± 0.044 |

| Sequence | pre-steady-state target cleavage rate |
| --- | --- |
| UAGUGACUCACCUUCUCUGAGACUUAUUGA | 0.000109 ± 0.047 |
| UAGUGACACACCUUCUCUGAGUGAUUAUGA | 0.0006 ± 0.012 |
| UUCACUGUCACCUUCUGACUCUCUAAUUGA [g15:g29:cont:t1A] | 0.000695 ± 0.0083 |
| UAGUGACUCACCUUCUCUCAGAGAAUAACA | 0.00327 ± 0.0036 |
| UAGUGACAGUGGAACUCUGAGUAGAUUAACA | 0.000721 ± 0.02 |
| UAGUGACUCAGCUUCUCUGAGAGAUAUUGA | 0.000758 ± 0.0065 |
| UACACUGUCAGGAUCUCUGAGAGAUUAUGA | 0.00116 ± 0.0057 |
| UUCACUGUCACCUUCUCUCUGAGAUAUUGA | 0.00389 ± 0.0041 |
| UAGUCUGUCACCUUCUCUGACAGAUUUACA | 0.0113 ± 0.0036 |
| UUCACUGUCACCGUCUCUGAGAGAUUAACA | 0.509 ± 0.022 |
| UAGUGACAGUGCUUCUCUGUGAGAUUUACA | 0.00148 ± 0.0065 |
| UAGUGACAGUGCUUCUCUGAGUCAUUAAGA | 0.000129 ± 0.025 |
| UAGUGAGUCACCUUCUCUGAGUCAUUUUGA | 0.00402 ± 0.0043 |
| UAGUGACAGACCUUCUCUGAGAGAUAAUGA | 0.00258 ± 0.0046 |
| UAGUGUGUCUGGUUCUCUGAGAGAUUAUGA | 0.000135 ± 0.025 |
| AUCUCUGUCACCUUGUCUGAGAGAUUAACA | 0.394 ± 0.06 |
| UAGACUGUCACCUUCUCUGAGACAUUAUCA | 0.00216 ± 0.0034 |
| UAGACUGUCACCUUCUCUCUGAGAUUAACA | 0.0118 ± 0.0026 |
| UAGUGACUCACCUUCUCUCAGUGAUUAACA | 0.00278 ± 0.0047 |
| UAGUGACUCACCUUCUACUGAGAGAUUAACA | 0.000245 ± 0.031 |
| UAGUGACACACCUUCUCUCACAGAUUAACA | 0.0023 ± 0.0064 |
| UACACUGUCACCUUCUCUGUCUGAUUAAGA | 0.0061 ± 0.0071 |
| UAGUGACAGUGGAACUCUGGAGAUUAACA | 0.00125 ± 0.0041 |
| UAGUGACACACCUUCUCUCGAGAGAUUAACA | 0.00161 ± 0.007 |

| Sequence | pre-steady-state target cleavage rate |
| --- | --- |
| UAGUGACAGUGCUUCUCUGAGCAGAUUAACA | 0.000908 ± 0.0048 |
| AUCAACUGUCACCUUCUCUGAGAGAUUAACA | 0.737 ± 0.049 |
| UAGACUGUCACCUUCUCUGUGACAUUAACA | 0.0186 ± 0.0033 |
| UAGUGACAGUGCUUAUCUGAGAGAUUAACA | 0.00129 ± 0.0063 |
| UAGUGACACACCUACUCUGAGAGAUUAUGA | 0.0029 ± 0.0032 |
| UAGUGACAGUGCUUCUCUGUGAGAUAAACA | 0.000517 ± 0.011 |
| UAGUGACUCACCUUCUCUGAGAGUAAAAGA | 0.00221 ± 0.0044 |
| UAGUGUGUCACCUUCUCACUGAGAUUAUGA | 0.00157 ± 0.0079 |
| UAGUGACAGUCCUUCUCUCUCAGAUUAAGA | 0.00018 ± 0.039 |
| UAGUGACACACCUUCUCUGAGUCUUUAUGA | 0.000675 ± 0.013 |
| UAGACUGUCACCUUCUCUCAGAGAUAUUGA | 0.00178 ± 0.0044 |
| UAGUGACAGUCCUUGUCUGUGAGAUUAACA | 0.00239 ± 0.0032 |
| UACAGUGUCACCUUCUCUGAGUGAUUAACA | 0.0377 ± 0.0077 |
| UACACUGUCACCUUCUCUGUCUCUAAUUGA [g12:g28:cont:t1A] | 0.00173 ± 0.0087 |
| UAGUGACAGACCUUCUCUGAGAGAAUAAGA | 0.00151 ± 0.0065 |
| UAGUGACAGACCUUCUCAGAGAGAUUAUGA | 0.00121 ± 0.0086 |
| UAGUGACACAGGAUCUCUGAGAGAUAUUGA | 0.000102 ± 0.035 |
| UAGUGUGUCACCUUCUCUCUGAGAUUUUGA | 0.00115 ± 0.011 |
| UAGUGACACACCUUCUCUGAGCAGAUUAACA | 0.000467 ± 0.0096 |
| UAGUGACACACCUUCUCUGACUCUAAUUGA [g11:g22:cont:t1A] | 0.000291 ± 0.03 |
| UAGUGACAGUGGAAGAGACUCUCAUUAACA | 0.000158 ± 0.02 |
| UAGUGACUCACCUUCUCACAGAGAUUAACA | 0.00108 ± 0.0068 |
| UAGUGACAGUGCUUCUCUGGGAGAUUAACA | 0.00221 ± 0.0033 |

Part of the list above, set out differently:
Sequence	pre-steady-state target cleavage rate
UAGACUGUCACCUUCUCUGUGACAUUAACA	0.0186 ± 0.0033
UAGUGACAGUCCUUCUCUCUCAGAUUAAGA	0.00018 ± 0.039
UAGUGACACACCUUCUCUGAGUCUUUAUGA	0.000675 ± 0.013
UAGUGACAGACCUUCUCAGAGAGAUUAUGA	0.00121 ± 0.0086
